Assay results taken from doi:10.1101/2024.03.04.583404.
These are yes or no findings as the source states them, for the method shown. Binding seen in cells or lysates may run through a third protein. These calls come from enrichment with a bait or labelling near it, and not all partners need be listed. Sequences can lack the tags named with a protein.

Target: T1, DCAP-2::3XFLAG (C. elegans (endogenous in embryos)) (UniProt O62255)
T1 sequence: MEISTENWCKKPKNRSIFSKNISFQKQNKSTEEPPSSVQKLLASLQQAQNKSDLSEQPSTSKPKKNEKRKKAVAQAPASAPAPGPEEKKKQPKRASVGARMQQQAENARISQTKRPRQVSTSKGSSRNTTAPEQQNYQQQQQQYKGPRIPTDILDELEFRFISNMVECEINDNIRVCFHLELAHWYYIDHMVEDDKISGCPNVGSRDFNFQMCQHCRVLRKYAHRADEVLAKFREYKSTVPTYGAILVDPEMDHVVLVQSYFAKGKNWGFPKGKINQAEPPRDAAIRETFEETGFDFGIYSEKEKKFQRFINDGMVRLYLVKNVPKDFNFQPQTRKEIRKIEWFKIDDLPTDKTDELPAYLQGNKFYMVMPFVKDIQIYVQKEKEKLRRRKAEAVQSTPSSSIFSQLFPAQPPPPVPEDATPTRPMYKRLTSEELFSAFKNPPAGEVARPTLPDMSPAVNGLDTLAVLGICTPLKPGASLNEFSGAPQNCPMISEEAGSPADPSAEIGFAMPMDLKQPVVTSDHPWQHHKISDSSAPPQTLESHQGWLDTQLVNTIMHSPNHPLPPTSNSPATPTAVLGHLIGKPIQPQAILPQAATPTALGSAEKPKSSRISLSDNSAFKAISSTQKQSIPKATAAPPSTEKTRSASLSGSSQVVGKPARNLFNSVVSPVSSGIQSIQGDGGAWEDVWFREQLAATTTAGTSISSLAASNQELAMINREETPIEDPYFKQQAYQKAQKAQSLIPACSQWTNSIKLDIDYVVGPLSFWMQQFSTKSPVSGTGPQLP
Test: affinity purification with mass spectrometry

B1: CAR-1 (protein, UniProt Q9XW17 1-340)
chain: MSNQTPYIGSKISLISKLDIRYEGILYTVDTNDSTIALAKVRSFGTEKRPTANPVAARDDVYEYIIFKASDIKDLIVCDTPKMANIGGGLPYDPAIISVSSRSAPASDGAPAASAGSSRAGTPSRNSPLGQIIQNQRPGRGGYQQNFQANRGYNNYRGGFAGGYNNQRGHNNYGVPRVNHREKLKFESDFDFEKANEKFQEVLVDNLEKLNIEDKAEPEVEEKKDAAFYDKKTSFFDNISCESLEKAEGKTGRPDWKKERETNQETFGHNAVRSLNYRRGFGGRGRGGNRGYGGYNNGYQHQHQHRGGYNGGYRQNNGGYRRGGYAPRDNQGNTAAAAEQ
B1 was tested, and the binding was “binds”.
